Here are results for 38 targets from the supplement of paper PMC10849652.

Amino acid sequences for entries named in this document (tags omitted). A change or cut given only in a name is not applied to a line headed by its entry.
UniProt Q2TAZ0: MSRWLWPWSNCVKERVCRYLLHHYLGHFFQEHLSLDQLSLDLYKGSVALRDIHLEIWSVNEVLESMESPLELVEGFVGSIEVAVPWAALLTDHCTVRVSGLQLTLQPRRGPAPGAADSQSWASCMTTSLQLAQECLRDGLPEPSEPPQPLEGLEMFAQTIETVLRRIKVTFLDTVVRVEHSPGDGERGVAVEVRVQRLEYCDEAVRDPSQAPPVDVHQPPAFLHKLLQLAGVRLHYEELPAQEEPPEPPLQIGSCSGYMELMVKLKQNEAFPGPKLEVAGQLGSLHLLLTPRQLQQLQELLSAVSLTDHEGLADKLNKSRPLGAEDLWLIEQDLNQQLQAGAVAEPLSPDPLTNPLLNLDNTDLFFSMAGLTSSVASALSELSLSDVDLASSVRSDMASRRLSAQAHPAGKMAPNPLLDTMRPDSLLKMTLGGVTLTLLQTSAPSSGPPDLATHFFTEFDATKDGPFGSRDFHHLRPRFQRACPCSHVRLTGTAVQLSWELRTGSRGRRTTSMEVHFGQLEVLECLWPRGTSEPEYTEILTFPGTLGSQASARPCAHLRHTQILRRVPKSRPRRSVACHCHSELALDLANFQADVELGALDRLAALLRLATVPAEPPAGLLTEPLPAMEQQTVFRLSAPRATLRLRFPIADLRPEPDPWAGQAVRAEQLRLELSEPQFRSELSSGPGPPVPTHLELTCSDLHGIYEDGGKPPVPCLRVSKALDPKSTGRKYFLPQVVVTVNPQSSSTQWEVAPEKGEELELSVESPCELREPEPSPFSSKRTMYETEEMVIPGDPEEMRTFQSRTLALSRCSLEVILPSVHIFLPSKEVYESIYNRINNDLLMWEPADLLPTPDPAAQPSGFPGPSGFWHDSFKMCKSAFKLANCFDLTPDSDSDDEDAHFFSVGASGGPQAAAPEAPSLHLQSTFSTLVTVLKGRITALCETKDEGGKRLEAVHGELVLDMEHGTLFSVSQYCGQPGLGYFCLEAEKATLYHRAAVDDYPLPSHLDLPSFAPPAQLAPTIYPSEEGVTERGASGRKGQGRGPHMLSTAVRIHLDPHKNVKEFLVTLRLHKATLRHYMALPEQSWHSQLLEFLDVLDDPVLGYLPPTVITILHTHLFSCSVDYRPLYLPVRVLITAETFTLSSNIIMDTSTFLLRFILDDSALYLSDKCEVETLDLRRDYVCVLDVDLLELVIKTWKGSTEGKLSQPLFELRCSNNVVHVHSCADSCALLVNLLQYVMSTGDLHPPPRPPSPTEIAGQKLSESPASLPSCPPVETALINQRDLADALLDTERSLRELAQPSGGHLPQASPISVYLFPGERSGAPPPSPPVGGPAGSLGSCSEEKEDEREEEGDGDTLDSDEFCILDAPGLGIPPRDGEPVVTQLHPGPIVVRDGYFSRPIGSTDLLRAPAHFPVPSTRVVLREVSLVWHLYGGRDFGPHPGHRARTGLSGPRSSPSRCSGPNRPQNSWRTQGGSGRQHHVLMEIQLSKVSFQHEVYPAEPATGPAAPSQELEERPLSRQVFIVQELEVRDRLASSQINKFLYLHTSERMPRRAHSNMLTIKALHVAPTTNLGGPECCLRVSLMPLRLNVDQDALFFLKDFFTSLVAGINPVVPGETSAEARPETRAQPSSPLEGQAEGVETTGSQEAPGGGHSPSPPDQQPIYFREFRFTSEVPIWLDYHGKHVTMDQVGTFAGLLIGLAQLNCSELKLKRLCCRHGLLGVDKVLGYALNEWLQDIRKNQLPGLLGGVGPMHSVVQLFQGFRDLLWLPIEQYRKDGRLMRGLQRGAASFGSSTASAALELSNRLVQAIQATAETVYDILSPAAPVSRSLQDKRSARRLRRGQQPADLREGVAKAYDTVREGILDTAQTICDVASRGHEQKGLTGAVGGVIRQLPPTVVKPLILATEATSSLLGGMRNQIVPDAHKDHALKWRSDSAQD
UniProt Q13510, whole entry, looked up: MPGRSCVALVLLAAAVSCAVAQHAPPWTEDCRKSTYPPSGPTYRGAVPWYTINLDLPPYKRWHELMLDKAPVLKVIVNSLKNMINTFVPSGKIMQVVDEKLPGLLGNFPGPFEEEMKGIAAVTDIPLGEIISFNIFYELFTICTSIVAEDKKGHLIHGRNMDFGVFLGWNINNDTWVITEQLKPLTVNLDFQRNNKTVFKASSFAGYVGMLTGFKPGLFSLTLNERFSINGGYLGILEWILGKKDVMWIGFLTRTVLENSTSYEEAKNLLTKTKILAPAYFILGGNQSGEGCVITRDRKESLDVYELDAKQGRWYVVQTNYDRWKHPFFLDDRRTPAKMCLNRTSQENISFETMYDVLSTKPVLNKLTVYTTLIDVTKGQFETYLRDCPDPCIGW
UniProt Q8N5M1: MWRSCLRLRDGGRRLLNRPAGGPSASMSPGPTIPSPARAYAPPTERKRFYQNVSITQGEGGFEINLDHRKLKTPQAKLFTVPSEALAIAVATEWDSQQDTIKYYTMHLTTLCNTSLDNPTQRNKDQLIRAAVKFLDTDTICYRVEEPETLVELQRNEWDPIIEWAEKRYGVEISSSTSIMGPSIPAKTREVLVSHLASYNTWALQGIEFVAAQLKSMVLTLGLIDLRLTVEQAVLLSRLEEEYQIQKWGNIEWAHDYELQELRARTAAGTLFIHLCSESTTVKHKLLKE
UniProt Q96BY7: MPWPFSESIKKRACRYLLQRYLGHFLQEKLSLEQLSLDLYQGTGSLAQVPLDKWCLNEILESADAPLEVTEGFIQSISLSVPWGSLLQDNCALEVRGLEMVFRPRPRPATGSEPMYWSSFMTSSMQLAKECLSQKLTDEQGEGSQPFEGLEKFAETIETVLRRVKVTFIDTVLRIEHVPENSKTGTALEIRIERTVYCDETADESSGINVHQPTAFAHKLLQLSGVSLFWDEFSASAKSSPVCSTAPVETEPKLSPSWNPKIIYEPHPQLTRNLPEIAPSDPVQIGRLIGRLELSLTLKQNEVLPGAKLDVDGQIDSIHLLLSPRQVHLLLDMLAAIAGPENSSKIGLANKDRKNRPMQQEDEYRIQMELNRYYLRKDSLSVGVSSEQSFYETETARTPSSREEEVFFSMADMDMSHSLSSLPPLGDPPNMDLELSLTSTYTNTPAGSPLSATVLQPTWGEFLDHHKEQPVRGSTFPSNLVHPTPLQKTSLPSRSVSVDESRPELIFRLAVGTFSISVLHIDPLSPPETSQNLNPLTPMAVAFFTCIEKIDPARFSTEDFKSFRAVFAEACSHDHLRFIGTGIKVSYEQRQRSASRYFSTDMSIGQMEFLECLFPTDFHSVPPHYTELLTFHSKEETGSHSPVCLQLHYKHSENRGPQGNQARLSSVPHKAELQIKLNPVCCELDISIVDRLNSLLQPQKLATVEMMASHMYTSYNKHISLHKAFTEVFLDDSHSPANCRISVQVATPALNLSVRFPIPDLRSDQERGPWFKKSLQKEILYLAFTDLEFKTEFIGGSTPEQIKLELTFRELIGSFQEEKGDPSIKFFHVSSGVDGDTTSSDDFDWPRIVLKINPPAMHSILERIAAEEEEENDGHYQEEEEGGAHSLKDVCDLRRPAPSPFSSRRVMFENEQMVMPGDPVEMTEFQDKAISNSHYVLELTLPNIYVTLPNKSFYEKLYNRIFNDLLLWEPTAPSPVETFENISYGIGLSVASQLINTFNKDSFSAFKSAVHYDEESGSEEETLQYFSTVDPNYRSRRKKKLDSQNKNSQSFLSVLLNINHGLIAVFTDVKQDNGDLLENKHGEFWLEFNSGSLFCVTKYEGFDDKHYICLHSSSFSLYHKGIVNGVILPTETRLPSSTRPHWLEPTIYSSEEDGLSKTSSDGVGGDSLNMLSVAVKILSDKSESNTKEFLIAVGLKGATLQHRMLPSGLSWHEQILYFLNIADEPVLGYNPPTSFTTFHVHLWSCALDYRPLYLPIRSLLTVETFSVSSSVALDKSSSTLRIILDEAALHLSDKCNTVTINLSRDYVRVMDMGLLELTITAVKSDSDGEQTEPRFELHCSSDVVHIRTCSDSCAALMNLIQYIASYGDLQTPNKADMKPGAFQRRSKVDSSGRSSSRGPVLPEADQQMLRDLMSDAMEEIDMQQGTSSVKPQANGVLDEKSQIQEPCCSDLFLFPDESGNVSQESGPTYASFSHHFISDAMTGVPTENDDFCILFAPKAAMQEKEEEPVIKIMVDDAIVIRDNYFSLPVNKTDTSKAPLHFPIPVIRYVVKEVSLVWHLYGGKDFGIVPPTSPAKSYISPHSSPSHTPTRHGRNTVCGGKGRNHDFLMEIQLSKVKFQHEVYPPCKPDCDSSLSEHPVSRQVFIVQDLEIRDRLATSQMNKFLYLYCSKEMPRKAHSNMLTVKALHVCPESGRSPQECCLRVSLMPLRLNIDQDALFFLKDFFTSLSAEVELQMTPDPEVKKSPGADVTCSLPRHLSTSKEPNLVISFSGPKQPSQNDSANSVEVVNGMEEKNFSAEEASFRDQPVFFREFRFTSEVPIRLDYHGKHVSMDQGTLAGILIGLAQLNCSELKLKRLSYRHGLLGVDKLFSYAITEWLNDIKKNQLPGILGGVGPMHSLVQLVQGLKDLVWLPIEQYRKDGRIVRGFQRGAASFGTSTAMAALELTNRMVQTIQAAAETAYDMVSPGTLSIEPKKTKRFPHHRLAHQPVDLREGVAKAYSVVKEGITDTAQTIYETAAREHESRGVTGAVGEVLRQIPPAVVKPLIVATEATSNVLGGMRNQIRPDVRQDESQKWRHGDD
UniProt P56381: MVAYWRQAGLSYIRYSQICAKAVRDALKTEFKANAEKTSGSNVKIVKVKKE
UniProt P98194: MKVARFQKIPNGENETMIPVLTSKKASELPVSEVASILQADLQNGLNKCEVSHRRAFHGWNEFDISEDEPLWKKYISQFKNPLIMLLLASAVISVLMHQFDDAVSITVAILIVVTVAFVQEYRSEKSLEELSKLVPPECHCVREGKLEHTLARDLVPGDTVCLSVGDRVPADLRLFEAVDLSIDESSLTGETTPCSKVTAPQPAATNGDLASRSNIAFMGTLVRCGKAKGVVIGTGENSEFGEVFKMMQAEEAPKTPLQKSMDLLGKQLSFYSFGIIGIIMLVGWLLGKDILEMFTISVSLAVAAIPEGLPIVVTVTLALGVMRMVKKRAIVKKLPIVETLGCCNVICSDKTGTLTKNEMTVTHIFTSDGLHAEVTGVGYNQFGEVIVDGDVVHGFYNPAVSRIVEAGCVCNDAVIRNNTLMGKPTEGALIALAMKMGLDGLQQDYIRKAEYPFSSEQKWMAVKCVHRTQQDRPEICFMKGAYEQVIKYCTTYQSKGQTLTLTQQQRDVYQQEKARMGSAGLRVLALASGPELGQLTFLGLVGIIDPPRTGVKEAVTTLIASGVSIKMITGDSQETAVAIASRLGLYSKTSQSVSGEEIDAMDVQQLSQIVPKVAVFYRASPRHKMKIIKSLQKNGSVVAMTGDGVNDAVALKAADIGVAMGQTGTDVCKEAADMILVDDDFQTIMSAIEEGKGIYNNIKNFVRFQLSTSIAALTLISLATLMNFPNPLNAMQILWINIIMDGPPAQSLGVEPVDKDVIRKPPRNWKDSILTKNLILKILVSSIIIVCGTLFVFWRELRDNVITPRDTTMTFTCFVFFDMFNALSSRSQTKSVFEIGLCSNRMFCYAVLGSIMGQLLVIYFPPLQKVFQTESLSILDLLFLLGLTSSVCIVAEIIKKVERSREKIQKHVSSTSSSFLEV
UniProt Q06055: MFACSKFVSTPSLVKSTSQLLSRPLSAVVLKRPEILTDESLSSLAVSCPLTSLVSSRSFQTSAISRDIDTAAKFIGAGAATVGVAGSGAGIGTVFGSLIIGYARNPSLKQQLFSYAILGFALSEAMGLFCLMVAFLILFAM
UniProt Q9NVT9: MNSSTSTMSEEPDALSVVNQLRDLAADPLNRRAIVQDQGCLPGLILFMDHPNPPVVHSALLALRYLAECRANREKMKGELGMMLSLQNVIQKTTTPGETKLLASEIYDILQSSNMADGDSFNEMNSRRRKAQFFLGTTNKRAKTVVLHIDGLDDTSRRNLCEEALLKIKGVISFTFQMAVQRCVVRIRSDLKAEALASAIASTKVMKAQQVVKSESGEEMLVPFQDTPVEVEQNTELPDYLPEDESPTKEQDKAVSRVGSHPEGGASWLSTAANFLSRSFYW
UniProt Q9H2C2: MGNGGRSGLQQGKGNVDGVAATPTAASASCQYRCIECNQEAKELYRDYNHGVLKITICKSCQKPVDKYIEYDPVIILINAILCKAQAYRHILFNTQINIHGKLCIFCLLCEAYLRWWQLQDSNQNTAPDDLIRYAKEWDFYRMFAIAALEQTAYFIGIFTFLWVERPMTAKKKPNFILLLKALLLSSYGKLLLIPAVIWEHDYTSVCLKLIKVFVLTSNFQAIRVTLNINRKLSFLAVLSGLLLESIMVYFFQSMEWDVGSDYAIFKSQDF
UniProt Q9Y294, whole entry, looked up: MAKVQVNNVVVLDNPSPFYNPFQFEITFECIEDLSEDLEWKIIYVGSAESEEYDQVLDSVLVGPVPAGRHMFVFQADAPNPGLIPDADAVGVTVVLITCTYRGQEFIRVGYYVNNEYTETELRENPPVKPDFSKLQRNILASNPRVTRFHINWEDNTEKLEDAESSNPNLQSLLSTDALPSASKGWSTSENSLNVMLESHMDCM

This is one part of the list.

Compound in this test: CN1CCC(CNc2ccc3ncc(-c4cccc(OC(F)(F)F)c4)n3n2)CC1
As to the kind of experiment: log2 fold change, soluble protein after heating vs DMSO (PISA); higher = thermal stabilisation; K562 cells, 10 uM, 30 min; active = over 0.2 and 3.5 SD of the protein, either way, in both replicates (recomputed). The method in brief: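 Quantification of soluble protein used TMTpro 16plex LC-MS/MS, with channel sums equalised. Samples were the supernatant after 21,000xg for 90 min of pooled aliquots from K562 cells (2×10^6 cells/mL) treated with 10 μM compound for 30 min, heated for 3 min over 48°C-58°C, and extracted in PBS with 0.5% NP-40 at 4°C. Values, from duplicates, describe thermal stability against control samples on a log2 fold-change scale.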
ATP7A isoform 3 (UniProt Q04656): the log2 fold change was inactive: 0.086.

For ARPC1B (UniProt O15143), the log2 fold change was inactive: 0.175.

Take ASAP1 isoform 2 (UniProt Q9ULH1): the log2 fold change is inactive: -0.138.

For ATG3 (UniProt Q9NT62), the log2 fold change was inactive: -0.087.

On to ARL6IP1 (UniProt Q15041), for which the log2 fold change is inactive: 0.038.

For ATG2A isoform 3 (UniProt Q2TAZ0), the log2 fold change was inactive: -0.176.

For the target ARRB2 isoform 4 (UniProt P32121), the log2 fold change was inactive: -0.007.

ATP5MF (UniProt P56134): the log2 fold change was inactive: 0.001.

Take ASPM (UniProt Q8IZT6): the log2 fold change is inactive: -0.307.

ATP6V1A (UniProt P38606): the log2 fold change was inactive: -0.076.

Take ATP11B (UniProt Q9Y2G3): the log2 fold change was inactive: -0.089.

Take ASL (UniProt P04424): the log2 fold change is inactive: -0.029.

Turning to ATP6AP2 (UniProt O75787), the log2 fold change was inactive: 0.044.

Consider ASAH1 isoform 2 (UniProt Q13510), for which the log2 fold change was inactive: -0.174.

On to ATP5F1A (UniProt P25705), for which the log2 fold change is inactive: 0.087.

Turning to ARIH2 (UniProt O95376), the log2 fold change is inactive: -0.042.

For ARPC3 (UniProt O15145), the log2 fold change is inactive: -0.009.

As to ATPAF2 (UniProt Q8N5M1), the log2 fold change is inactive: 0.034.

With ATG2B (UniProt Q96BY7), the log2 fold change is inactive: -0.117.

As for ARPC1A (UniProt Q92747), the log2 fold change is inactive: 0.098.

Turning to ATP5F1E (UniProt P56381), the log2 fold change was inactive: 0.079.

In the case of ATE1 isoform 2 (UniProt O95260), the log2 fold change is inactive: -0.061.

Consider ASPH (UniProt Q12797), for which the log2 fold change was inactive: 0.129.

With ATP2C1 isoform 7 (UniProt P98194), the log2 fold change is inactive: -0.096.

Consider ATL3 (UniProt Q6DD88), for which the log2 fold change is inactive: -0.126.

As to ARPC5 (UniProt O15511), the log2 fold change is inactive: -0.029.

With ARPC2 (UniProt O15144), the log2 fold change was inactive: 0.004.

For ATP5MC2 isoform 2 (UniProt Q06055), the log2 fold change is inactive: 0.01.

As to ARMC1 (UniProt Q9NVT9), the log2 fold change is inactive: -0.181.

For ATF2 (UniProt P15336), the log2 fold change is inactive: 0.187.

For ATP6V0D1 (UniProt P61421), the log2 fold change is inactive: 0.026.

For ASCC3 (UniProt Q8N3C0), the log2 fold change is inactive: -0.006.

On to ARPC4 isoform 3 (UniProt P59998), for which the log2 fold change was inactive: 0.064.

ARV1 (UniProt Q9H2C2): the log2 fold change was inactive: 0.116.

As to ARSB (UniProt P15848), the log2 fold change is inactive: -0.168.

As for ASF1A (UniProt Q9Y294), the log2 fold change is inactive: -0.016.

For the target ATP11C (UniProt Q8NB49), the log2 fold change is inactive: -0.075.

In the case of ATP2B4 (UniProt P23634), the log2 fold change was inactive: 0.2.
